# Experimental data: patent EP2308983B1, “Cytochrome P450 from Rhizopus oryzae and uses thereof” (Univerza v Ljubljani, priority 2009, dated 2011)
# At least one compound was matched to its structure with a doubt left.
# Test system: CYP509C12
# Assay: Steroid hydroxylation assay of recombinant S. pombe strain SpoC12 expressing CYP509C12 (whole-cell biotransformation, HPLC and LC/MS)
# Details: SpoC12, 300 µM steroid, 24 h
# Method: S. pombe cells, grown as described in the previous section, were washed with EMM, centrifuged (4000 × g, 5 min, 4 °C) and suspended in 10 mL of fresh medium to a final density of 10^8 cells mL^-1. […] 500 µL of SpoC12 yeast culture was taken after different time periods and the steroids were extracted twice with chloroform, evaporated, solved in acetonitrile, and analyzed by HPLC. The steroid extracts from whole cell cultures growing for 24 h were analyzed by LC/MS.
# Reverse phase HPLC using an isocratic solvent system of acetonitrile:H2O 60:40 (v/v) as mobile phase, flow rate […], was carried out on a WellChrom system (Knauer, Berlin, Germany) composed of an auto-sampler AS-2050 plus, Mini-Star K-500 pump, Jet Stream II Plus thermostat, and an UV-detector WellChrom Spectro Photometer K-2600, equipped with a C18 ODS Hypersil 250 x 4.6 mm, 5 µm particle column from Thermo® (Waltham, MA, USA). Steroids were detected at 240 nm and the peak area calculation was done using the EuroChrom 2000 software (Knauer). Steroid standards were used to identify the HPLC peaks and to construct calibration curves. Concentrations of steroids were determined using calibration curves in the range of 0.05 -1 mg mL^-1 of each analyte. […] The peak area of a specific steroid at each time point was assessed relative to the total area of identified steroid peaks. […]
compound,measurement,value
"C[C@]12CC[C@H]3[C@@H](CCC4=CC(=O)CC[C@@]43C)[C@@H]1CC[C@@H]2C(=O)CO [DOC, 11-deoxycorticosterone]",proportion between 11α- and 6β-hydroxylated products,2:1
